Results deposited as PubChem BioAssay AID1053208 (Peter MacCallum Cancer Centre, 2014)
The whole screen tested about 17,000 reagents; shown is a random part of them. In the full data, 788 (4.7%) got an active call. 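Calls rest on z-score classes alone; an extra cut-off of viability at most 70% of control was not applied to them.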 Further read-outs or replicates are left out here.

Aim: 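Find knock-downs that sensitise mouse osteosarcoma cells to doxorubicin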 (primary screen)
Cells: mouse osteosarcoma cells, early-passage culture from an engineered mouse model of fibroblastic bone tumour
Reagents: siRNA pool against mouse genes, 40 nM
Time to read-out: about 120 h (48 h before drug, then 72 h with drug)
Treatment: doxorubicin 100 nM for 72 h, roughly 30-40% inhibitory dose
Measured: 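Luminescent ATP signal taken as viability with or without 100 nM doxorubicin for 72 h; mean of two wells set against non-targeting siRNA and turned into robust z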
Reading the numbers: viability z-score with doxorubicin: higher = more viable cells under doxorubicin; viability z-score without drug: higher = more viable cells with knock-down alone; z-score of drug to no-drug ratio: higher = less drug sensitisation by knock-down
Rule for the call: 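a pool counts as active when its viability z-score with doxorubicin is -2 or below and its z-score without drug lies between -2 and 2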

| target | combined z-score class | viability z-score with doxorubicin | viability z-score without drug | z-score of drug to no-drug ratio | Outcome |
| --- | --- | --- | --- | --- | --- |
| Setmar | no change with or without drug | -0.67 | -1.18 | 0.22 | inactive |
| Serpinb6c | no change with or without drug | 1.35 | 0.17 | 1.35 | inactive |
| Or11g7 | no change with or without drug | 0.9 | 0.84 | 0.45 | inactive |
| Sgo1 | low cell count without drug only | -1.35 | -2.53 | 0.45 | inactive |
| Psca | no change with or without drug | 0.45 | 1.01 | -0.11 | inactive |
| 4932414J04Rik | high cell count without drug only | 0.11 | 2.19 | -1.12 | inactive |
| Slc9a8 | no change with or without drug | 0.67 | 0.17 | 0.67 | inactive |
| Sprr2a1 | low cell count with doxorubicin only | -2.02 | 0.34 | -2.25 | active |
| Mthfd1l | no change with or without drug | -0.45 | 0.17 | -0.45 | inactive |
| Apmap | high cell count with doxorubicin only | 2.02 | 1.85 | 0.9 | inactive |
| Dnase1l1 | no change with or without drug | -1.12 | -0.17 | -1.01 | inactive |
| Fgf1 | no change with or without drug | 0.56 | -0.51 | 1.12 | inactive |
| Pramel13 | no change with or without drug | 0.9 | -0.17 | 1.24 | inactive |
| Rabgef1 | no change with or without drug | -0.11 | -0.17 | 0.11 | inactive |
| Cog6 | no change with or without drug | 0.56 | 1.18 | -0.11 | inactive |
| Gas2l1 | no change with or without drug | 0.67 | 0.84 | 0.22 | inactive |
| Ugt1a2 | low cell count with doxorubicin only | -2.25 | -0.17 | -2.14 | active |
| 4933431E20Rik | no change with or without drug | -0.11 | 0.51 | -0.34 | inactive |
| Nek4 | no change with or without drug | 0.22 | -0.51 | 0.67 | inactive |
| Mug2 | no change with or without drug | -1.35 | -1.18 | -0.56 | inactive |
| Ubxn2b | no change with or without drug | 1.24 | -0.17 | 1.57 | inactive |
| Hsd17b11 | no change with or without drug | 0.56 | -0.84 | 1.35 | inactive |
| Imp3 | no change with or without drug | 1.8 | 1.52 | 0.9 | inactive |
| Topors | no change with or without drug | 0.22 | 0.51 | 0 | inactive |
| Gadd45a | no change with or without drug | 0.56 | -0.84 | 1.35 | inactive |
| Nhlrc2 | no change with or without drug | 0.56 | 0.84 | 0.11 | inactive |
| Nim1k | no change with or without drug | 0.45 | -0.17 | 0.67 | inactive |
| Sik2 | no change with or without drug | 1.46 | 1.01 | 0.9 | inactive |
| Trhr | no change with or without drug | -0.45 | -0.17 | -0.22 | inactive |
| Rhcg | no change with or without drug | -0.67 | 1.52 | -1.46 | inactive |
| Dnai4 | no change with or without drug | -0.9 | -0.51 | -0.56 | inactive |
| Hoxd10 | low cell count without drug only | -0.67 | -2.19 | 1.01 | inactive |
| Foxn3 | high cell count with and without drug | 2.92 | 2.19 | 1.46 | inactive |
| Aif1l | no change with or without drug | -0.22 | 0.17 | -0.22 | inactive |
| Yipf2 | no change with or without drug | 1.12 | 1.85 | 0 | inactive |
| Cox19 | low cell count with doxorubicin only | -2.14 | -1.85 | -1.01 | active |
| 9330132A10Rik | low cell count with doxorubicin only | -2.36 | -1.52 | -1.46 | active |
| Bex3 | no change with or without drug | 1.57 | -0.51 | 2.14 | inactive |
| Spaca1 | no change with or without drug | -1.01 | 1.18 | -1.69 | inactive |
| Sox17 | low cell count with doxorubicin only | -2.81 | -1.01 | -2.25 | active |
| Kng2 | no change with or without drug | -0.45 | 0 | -0.34 | inactive |
| Taar8a | no change with or without drug | -0.56 | 1.18 | -1.24 | inactive |
| Cmklr2 | no change with or without drug | -0.67 | -0.51 | -0.22 | inactive |
| Cdkn2d | low cell count without drug only | -1.12 | -2.19 | 0.45 | inactive |
| Igfbp4 | no change with or without drug | -0.9 | -1.18 | 0 | inactive |
| Kremen2 | no change with or without drug | 0 | 0.17 | 0 | inactive |
| Lrg1 | no change with or without drug | 0.22 | -1.18 | 1.24 | inactive |
| Pdcd5 | no change with or without drug | 0.22 | 0.17 | 0.22 | inactive |
| Prg2 | no change with or without drug | 0.22 | -0.84 | 1.01 | inactive |
| Ipo7 | no change with or without drug | 0.9 | 0.67 | 0.56 | inactive |
| Btaf1 | no change with or without drug | -1.35 | -0.51 | -1.01 | inactive |
| Ddx17 | no change with or without drug | 1.69 | 1.52 | 0.79 | inactive |
| Or52e2 | no change with or without drug | 0.34 | 0 | 0.45 | inactive |
| Col4a6 | no change with or without drug | 1.57 | 1.69 | 0.56 | inactive |
| Ccl17 | no change with or without drug | -0.11 | -0.67 | 0.45 | inactive |
| Ugt3a2 | no change with or without drug | -1.35 | 0 | -1.35 | inactive |
| Tedc1 | high cell count without drug only | 0.11 | 2.36 | -1.24 | inactive |
| Zfp275 | high cell count with doxorubicin only | 2.02 | 1.69 | 1.01 | inactive |
| Vmn1r35 | no change with or without drug | -0.67 | -0.17 | -0.45 | inactive |
| Tk2 | no change with or without drug | -0.9 | 0 | -0.79 | inactive |
| Klf4 | no change with or without drug | 0.79 | 1.01 | 0.22 | inactive |
| Ccdc63 | no change with or without drug | -1.12 | -0.17 | -1.01 | inactive |
| Or10g9 | no change with or without drug | -1.12 | 0.17 | -1.12 | inactive |

Part of the list above, reformatted:
{"target":"Cmklr2","combined z-score class":"no change with or without drug","viability z-score with doxorubicin":-0.67,"viability z-score without drug":-0.51,"z-score of drug to no-drug ratio":-0.22,"Outcome":"inactive"}
{"target":"Cdkn2d","combined z-score class":"low cell count without drug only","viability z-score with doxorubicin":-1.12,"viability z-score without drug":-2.19,"z-score of drug to no-drug ratio":0.45,"Outcome":"inactive"}
{"target":"Igfbp4","combined z-score class":"no change with or without drug","viability z-score with doxorubicin":-0.9,"viability z-score without drug":-1.18,"z-score of drug to no-drug ratio":0,"Outcome":"inactive"}
{"target":"Kremen2","combined z-score class":"no change with or without drug","viability z-score with doxorubicin":0,"viability z-score without drug":0.17,"z-score of drug to no-drug ratio":0,"Outcome":"inactive"}
{"target":"Lrg1","combined z-score class":"no change with or without drug","viability z-score with doxorubicin":0.22,"viability z-score without drug":-1.18,"z-score of drug to no-drug ratio":1.24,"Outcome":"inactive"}
{"target":"Pdcd5","combined z-score class":"no change with or without drug","viability z-score with doxorubicin":0.22,"viability z-score without drug":0.17,"z-score of drug to no-drug ratio":0.22,"Outcome":"inactive"}
{"target":"Prg2","combined z-score class":"no change with or without drug","viability z-score with doxorubicin":0.22,"viability z-score without drug":-0.84,"z-score of drug to no-drug ratio":1.01,"Outcome":"inactive"}
{"target":"Ipo7","combined z-score class":"no change with or without drug","viability z-score with doxorubicin":0.9,"viability z-score without drug":0.67,"z-score of drug to no-drug ratio":0.56,"Outcome":"inactive"}
